Reference: article PMC12040169 (PLOS Biology, 2025)
The list shows a part of the results.

test system: T1, CTL2-GFP (C. trachomatis L2/434/Bu, GFP-expressing); set-up: species or system HeLa; Intracellular C. trachomatis growth in HeLa cells, bulk GFP fluorescence relative to DMSO; conditions: bulk GFP, single well; 28.5 h, 10 µM; inhibitor
T1 construct: L2/434/Bu, GFP-expressing

SMILES | % of control remaining [%]
Nc1c(C(=O)NCc2ccccc2)c2nc3ccccc3nc2n1CCO [CBK267201] | 88.794
O=C(CCN1C(=O)c2cc(Cl)c(Cl)cc2C1=O)Nc1cccc(-c2cnc3ccccc3n2)c1 [CBK268575] | 92.946
O=C(Cc1ccccc1C(=O)O)Nc1ccc(-n2cncn2)c(Cl)c1 [CBK286756] | 138.646
COc1ccc(NC(=O)CCn2ccc3ccncc32)c(C)c1 [CBK282860] | 93.5217
CC(C)Nc1nccnc1Sc1nc[nH]n1 [CBK115205] | 104.034
COc1cc(/C=N/NC(=O)C2COc3ccccc3O2)cc([N+](=O)[O-])c1O (centres unmarked) [CBK261480] | 105.067
O=C(NC(c1ccccc1)c1ccsc1)C1CCN(S(=O)(=O)c2cccc(Cl)c2)CC1 (centres unmarked) [CBK060188] | 123.629
COc1ccc(CNS(=O)(=O)c2cc(OCC(N)=O)c(C)cc2Cl)cc1 [CBK266495] | 147.116
Cn1c(=O)c2c(ncn2CC(=O)Nc2cccnc2)n(C)c1=O [CBK133286] | 108.996
Cc1ccnn1CCC(=O)N1CCCC1c1cc2cccnc2[nH]1 (centres unmarked) [CBK282230] | 111.689
CCN(C)c1c(C)nc2c(OCc3cccc(Cl)c3)cccn12 [CBK147310] | 79.943
COc1ccc(CNC2CCCc3c2cnn3C)c(OC)c1 (centres unmarked) [CBK304875] | 119.515
Cn1nc(CO)c2c1CCN(CC(=O)Nc1nc(C(C)(C)C)cs1)C2 [CBK307161] | 112.9
CCc1ccc(CNC(=O)Cn2nnc(-c3ccc(CNC4CCOCC4)cc3)n2)cc1 [CBK161029C] | 65.2788
COC1C(O)C(CO)OC1n1cc(C)c(N)nc1=O (centres unmarked) [CBK201227] | 83.1963
O=c1c2ccccc2[nH]c(=S)n1CCCN1CCOCC1 [CBK092141] | 131.921
CN1CCC(CN(C)CC2CCCN(Cc3ccccc3)C2)C1 (centres unmarked) [CBK282946] | 130.035
COc1cc2c(cc1OC)C1(CCOCC1)CNC2CC(c1ccccc1)c1ccccc1 (centres unmarked) [CBK014382] | 127.946
CCOC(=O)C1CCN(S(=O)(=O)c2ccc(C(C)(C)C)cc2)CC1 [CBK051240] | 125.818
Fc1ccc2[nH]c3c(c2c1)CCN1C(c2ccccn2)N2CCC31CC2 (centres unmarked) [CBK284431] | 122.537
O=C(O)CCC(=O)N1c2ccccc2CC1c1ccccc1 (centres unmarked) [CBK286860] | 104.735
Cc1nnc(Nc2ccc(F)cc2)c2ccccc12 [CBK287873] | 109.619
CN(C)S(=O)(=O)N1CCN(c2ccc([N+](=O)[O-])c(NC3C4CC5CC(C4)CC3C5)c2)CC1 (centres unmarked) [CBK268986] | 135.719
COc1ccc2[nH]cc(CCNC3CCc4cccc(OC)c4C3)c2c1 (centres unmarked) [CBK016569C] | 86.7606
Cn1cc2c(n1)[C@H]1CN(C(=O)c3cc(C(F)(F)F)nn3C)C[C@H]1C2 [CBK283400] | 140.414

Not a retest: an excerpt of the list.
SMILES | % of control remaining [%]
CCN(C)c1c(C)nc2c(OCc3cccc(Cl)c3)cccn12 [CBK147310] | 79.943
COc1ccc(CNC2CCCc3c2cnn3C)c(OC)c1 (centres unmarked) [CBK304875] | 119.515

(list continues)

SMILES | % of control remaining [%]
Cn1cc(C(=O)N2CCC(c3ccccc3)C2)c2ccccc2c1=O (centres unmarked) [CBK281921] | 105.29
O=c1[nH]nc(SCCOc2c(Cl)c(Cl)c(Cl)c(Cl)c2Cl)c(=O)[nH]1 [CBK262794] | 100
COc1ccc(S(=O)(=O)Nc2cc(N3CCCC3)c3occc3c2)cc1OC [CBK061975] | 126.828
NC(=O)COc1ccc(C2Nc3ccccc3C(=O)N2C2CC2)cc1 (centres unmarked) [CBK295198] | 143.147
CC(C)(C)c1cc(C(=O)O)c(CN2CCOCC2)o1 [CBK264052] | 123.525
Nc1nc(-n2cnnc2)nn1-c1ccccc1 [CBK265015] | 107.067
Cc1cc(NC(=O)C(C)C)nc2c1c(=O)oc1ccccc12 [CBK287441] | 146.752
CC(Cc1ccccn1)NC(=O)C1CC2C=CC1C21CC1 (centres unmarked) [CBK282070] | 89.4744
COc1ccc2nc(NC(=N)NC(=S)Nc3ccc(Cl)cc3)nc(C)c2c1 [CBK266677] | 113.94
O=C(NC1(c2ccc(F)cc2)CCCC1)c1cnccn1 [CBK283595] | 132.91
O=S(=O)([O-])c1cc(S(=O)(=O)O)ccc1Nc1cc2c(nc3ccccc3[n+]2-c2ccccc2)c2ccccc12 [CBK260997N] | 69.8565
O=C1CC(c2ccccc2)CC(=O)N1c1ccc(N2CCOCC2)cc1 [CBK291191] | 117.097
COc1cc(CN2CCC3(CC2)CN(CCO)c2ccccc23)cc(OC)c1OC [CBK131524] | 105.628
CN1C(=O)COc2ccccc2CCCC[C@@H]2[C@H]1CCCN2C(=O)c1cc(=O)[nH]c(=O)[nH]1 [CBK292110] | 134.102
CCN(CC)Cc1c(O)ccc2cc(-c3nc4ccccc4[nH]3)c(=O)oc12 [CBK263824] | 100
Nc1nc(SCc2nnc(S)n2-c2ccccc2)nc2sc3c(c12)CCC3 [CBK301216K] | 106.867
C#CCNC(=O)CC[C@H]1CNC(=O)[C@@H]2[C@@H](CCN2Cc2ccccc2)N1C [CBK289034] | 142.229
Clc1cncc(-c2cc3ccccc3[nH]2)n1 [CBK154865] | 84.3117
O=C(C[n+]1ccc(CCSCc2ccc3c4c(cccc24)CC3)cc1)c1ccc2c3c(cccc13)CC2 [CBK260881B] | 100
O=C(NCC1COc2ccccc2O1)N1CCCC(CO)C1 (centres unmarked) [CBK156030] | 149.633
Cc1nc2n(n1)C(C(=O)Nc1ccc(C)c(C)c1)CC(=O)N2 (centres unmarked) [CBK288223] | 101.202
O=C(NCc1ccc(C(F)(F)F)cc1)[C@@H]1Cc2[nH]cnc2CN1C1CCOCC1 [CBK288981] | 127.387
O=C(CCN1CCc2ccccc2C1)Nc1ccccc1F [CBK264202] | 112.245
Cc1nc(C)n(CCCNc2cc(C(C)C)nc3ccnn23)n1 [CBK307497] | 123.909
CC(=O)Nc1cccc(-c2nccnc2NS(C)(=O)=O)c1 [CBK050740] | 100
